Reference: paper PMC9549625
These are yes or no findings as the source states them, for the method shown. Binding seen in cells or lysates may run through a third protein. Some results given as binding are weak or reduced against the parent protein; the word gives no strength.

Amino acid sequences for entries named in this document (tags omitted).
UniProt P46937: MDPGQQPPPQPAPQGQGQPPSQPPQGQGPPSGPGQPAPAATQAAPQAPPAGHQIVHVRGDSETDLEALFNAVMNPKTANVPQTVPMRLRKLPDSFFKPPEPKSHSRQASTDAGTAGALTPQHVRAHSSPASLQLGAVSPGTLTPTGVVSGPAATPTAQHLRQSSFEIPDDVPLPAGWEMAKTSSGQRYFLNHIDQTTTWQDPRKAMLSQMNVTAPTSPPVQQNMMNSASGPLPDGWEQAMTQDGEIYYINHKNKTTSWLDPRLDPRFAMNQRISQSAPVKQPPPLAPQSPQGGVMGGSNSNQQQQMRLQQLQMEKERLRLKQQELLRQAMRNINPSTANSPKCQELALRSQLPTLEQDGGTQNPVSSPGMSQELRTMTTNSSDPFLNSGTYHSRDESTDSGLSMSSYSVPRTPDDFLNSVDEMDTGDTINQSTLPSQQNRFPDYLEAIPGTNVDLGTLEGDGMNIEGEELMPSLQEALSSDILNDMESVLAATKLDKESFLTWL
UniProt P25490: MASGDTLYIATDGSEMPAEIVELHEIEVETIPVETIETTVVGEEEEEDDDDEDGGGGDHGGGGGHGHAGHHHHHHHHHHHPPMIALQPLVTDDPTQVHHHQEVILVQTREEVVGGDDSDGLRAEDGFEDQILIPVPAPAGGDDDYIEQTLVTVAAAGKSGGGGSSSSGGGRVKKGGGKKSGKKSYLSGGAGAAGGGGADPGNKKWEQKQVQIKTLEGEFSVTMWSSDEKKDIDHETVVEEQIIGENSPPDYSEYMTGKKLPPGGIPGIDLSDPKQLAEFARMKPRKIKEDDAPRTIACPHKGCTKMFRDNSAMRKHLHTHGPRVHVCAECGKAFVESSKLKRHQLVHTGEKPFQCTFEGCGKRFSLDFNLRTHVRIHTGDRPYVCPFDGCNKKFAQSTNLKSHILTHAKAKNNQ
UniProt P49407: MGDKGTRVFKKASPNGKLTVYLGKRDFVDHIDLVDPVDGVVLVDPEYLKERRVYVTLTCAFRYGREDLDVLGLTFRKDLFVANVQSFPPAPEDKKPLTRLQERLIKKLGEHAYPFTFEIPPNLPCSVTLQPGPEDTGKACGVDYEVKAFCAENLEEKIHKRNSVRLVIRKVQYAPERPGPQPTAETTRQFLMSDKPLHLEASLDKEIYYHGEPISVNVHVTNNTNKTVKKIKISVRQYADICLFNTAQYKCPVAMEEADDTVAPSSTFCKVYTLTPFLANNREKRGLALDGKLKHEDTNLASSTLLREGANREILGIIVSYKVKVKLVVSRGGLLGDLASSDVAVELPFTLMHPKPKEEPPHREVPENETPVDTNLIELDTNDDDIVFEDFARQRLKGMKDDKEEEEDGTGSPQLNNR

Biological target: Yes-associated protein 1 (YAP1), endogenous (human (endogenous in HCT116)) (UniProt P46937)
Assay: co-IP; endogenous proteins in HCT116 cell lysates; 3 µg primary antibody or normal rabbit IgG on protein A/G magnetic beads, incubated with protein lysates at 4 °C overnight; Western blot

| Substance | binding |
| --- | --- |
| Yin Yang 1 (YY1), endogenous (from UniProt P25490 1-414) | binds |
| β-arrestin1, endogenous (from UniProt P49407 1-418) | binds |
